The values that follow come from PubChem BioAssay AID720630 (Broad Institute, 2013).

This is one part of the list. Further columns of the screen follow, without active or inactive calls. Most of these compounds were active or inconclusive in the main read-out, so they are no random draw.

A short description of the first assay: HUVEC apoptotic caspase activation, HRAS target ID – cell-based, multiple timepoints, luminescence, dry powder, mechanism study for HRAS target identification, dose response (AID 720630). Particulars: HUVEC apoptosis, caspase-3/7 luminescence, measured here: max caspase activation timepoint 1, at 35 µM, test 1, stronger effect = higher value.
As for `C#CCCCC(=O)NCCOCCOCCOc1ccc(N(C(=O)CCl)C(C(=O)NCCc2ccccc2)c2cccs2)cc1Cl` (stereo not drawn), the max activity was 50.7%.

On to `COc1ccc(N(C(=O)CCl)C(C(=O)NCCc2ccccc2)c2cccs2)cc1Cl` (stereo not drawn), for which the max activity was 156%.

For `CO[C@H]1C[C@@H]2CC[C@@H](C)[C@@](O)(O2)C(=O)C(=O)N2CCCC[C@H]2C(=O)O[C@H]([C@H](C)C[C@@H]2CC[C@@H](O)[C@H](OC)C2)CC(=O)[C@H](C)/C=C(\C)[C@@H](O)[C@@H](OC)C(=O)[C@H](C)C[C@H](C)/C=C/C=C/C=C/1C`, the max activity was 22.2%.

The same assay, now with this note: HUVEC apoptosis, caspase-3/7 luminescence, measured here: max caspase activation timepoint 3, at 35 µM, test 3, stronger effect = higher value.
In the case of `Cc1onc(C(=O)N2CCN(C(c3ccc(Cl)cc3)c3ccc(OCCOCCOCCNC(=O)OC(C)(C)C)cc3)CC2)c1[N+](=O)[O-]` (stereo not drawn), the max activity came to 54.3%.

Take `C#CCCCC(=O)NCCOCCOCCOc1ccc(N(C(=O)CCl)C(C(=O)NCCc2ccccc2)c2cccs2)cc1Cl` (stereo not drawn): the max activity is 290%.

`CO[C@H]1C[C@@H]2CC[C@@H](C)[C@@](O)(O2)C(=O)C(=O)N2CCCC[C@H]2C(=O)O[C@H]([C@H](C)C[C@@H]2CC[C@@H](O)[C@H](OC)C2)CC(=O)[C@H](C)/C=C(\C)[C@@H](O)[C@@H](OC)C(=O)[C@H](C)C[C@H](C)/C=C/C=C/C=C/1C`: the max activity worked out at 92.7%.

Take `O=C(NCCOCCOCCOc1ccc(N(C(=O)CCl)C(C(=O)NCCc2ccccc2)c2cccs2)cc1Cl)c1ccc(COC2C#CCCCCC2)cc1` (stereo not drawn): the max activity is 88.9%.

With `CC(C)(C)OC(=O)NCCOCCOCCOc1ccc(N(C(=O)CCl)C(C(=O)NCCc2ccccc2)c2cccs2)cc1Cl` (stereo not drawn), the max activity was found to be 280%.
